For at least one entry, the source does not settle the construct or the ends of the probe. For some of these results: Negatives hold for the conditions tested.
Key:
[1] = test system: RNA polymerase (His6 RNAP + holoenzyme) (Escherichia coli); experiment: activity assay; settings: purified recombinant protein, protein details: His6 (Nudler Lab) or holoenzyme from Affymetrix, dose not given here
[2] = test system: RNA polymerase holoenzyme (core + sigma70) (Escherichia coli); experiment: activity in cells; settings: protein in cells, protein details: endogenous, tested in E. coli reporter strains, dose not given here
[3] = test system: RNA polymerase II; experiment: SELEX; settings: selected with yeast/human RNAP II; purified native protein
[4] = biological target: T7 RNA polymerase (Bacteriophage T7) (UniProt P00573); experiment: activity in cells; settings: T7 RNAP specificity control, no up-regulation; protein in cells; protein details: expressed in BL21(DE3)pLysS; dose not given here

The chains behind the UniProt entries cited, without tags or fusion partners. Where a name states a change or a piece, a line headed by the entry shows the natural chain unless it says otherwise.
UniProt P00573: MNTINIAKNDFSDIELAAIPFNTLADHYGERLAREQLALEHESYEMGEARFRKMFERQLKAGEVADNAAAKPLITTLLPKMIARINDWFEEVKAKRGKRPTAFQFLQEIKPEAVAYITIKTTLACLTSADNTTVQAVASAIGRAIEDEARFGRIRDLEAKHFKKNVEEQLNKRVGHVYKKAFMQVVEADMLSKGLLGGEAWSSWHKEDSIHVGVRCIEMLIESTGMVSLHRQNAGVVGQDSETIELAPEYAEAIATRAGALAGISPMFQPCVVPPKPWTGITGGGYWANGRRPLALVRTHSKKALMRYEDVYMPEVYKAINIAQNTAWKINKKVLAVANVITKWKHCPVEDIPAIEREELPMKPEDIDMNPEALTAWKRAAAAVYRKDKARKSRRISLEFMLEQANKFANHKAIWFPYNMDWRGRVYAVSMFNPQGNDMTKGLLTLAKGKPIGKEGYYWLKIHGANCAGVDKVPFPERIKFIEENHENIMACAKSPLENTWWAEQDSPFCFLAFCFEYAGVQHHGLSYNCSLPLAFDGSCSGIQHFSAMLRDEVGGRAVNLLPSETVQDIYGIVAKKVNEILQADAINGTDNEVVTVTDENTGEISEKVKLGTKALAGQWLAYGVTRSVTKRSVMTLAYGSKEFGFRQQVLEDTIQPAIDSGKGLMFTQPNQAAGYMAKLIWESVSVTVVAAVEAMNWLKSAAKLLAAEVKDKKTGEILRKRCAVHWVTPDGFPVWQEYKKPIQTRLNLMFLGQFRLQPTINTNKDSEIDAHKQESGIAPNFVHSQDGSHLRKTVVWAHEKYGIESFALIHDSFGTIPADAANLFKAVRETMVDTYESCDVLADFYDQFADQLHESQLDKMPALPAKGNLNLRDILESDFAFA

Sequence | selection result [3] | further results
CCACUUCACCAUCGAUCCUUCCCGCAUUAAACAACAUGUCCGUUUU [RAP #2136] |  | functional effect of the aptamer ([1]; in vitro transcription, Rho-dependent termination): active; functional effect of the aptamer ([2]; inhibiting): active
GCAGCAUGAAAGUCACAGUUCUAAACAUUCAUUCUGUGCC [yh20] | selected | 
GCAGCAUGAACCAAACACCUUCCACUAGUCCCAUCC [yh25] | selected | 
GCAGCCCACAAACCACACCC [yh19] | selected | 
GCAGCCCACACAUCAUACACACACACCCC [yh17] | selected | 
GCAGCGUUAGUACAUACCCUUCCUCACCAUUGUUCCCCCAUCC [yh34] | selected | 
GCAGCUUAAACUGCCUGACCGGUAAGAAACUGACCAACAUGCGUGCUUCCGGUACUGACGAAGCCUUCAUCC [yh18] | selected | 
GCAGCUUUACUUAACAGUUGAGCUAAUUUACACUCCCAUGGAUAGUGUAUAAGUGUUUCAUUUUCGCCC [yh24] | selected | 
GCCCACAAGAUUCCACGAUAGAUAUCAAGGAUUUAAAGCUGAUUCAGUGUAUAGUACAUC [yh10] | selected | 
GGGAAUUCGGAGCGGGAUCGGUUGCAUUAGCUAAGCCUGAGAAGGUGAUGUUGUUGCC [yh8] | selected | 
GUACGAGCGGACCCCACAGUUUUAAGCCUAAACUUGGCCUUAUGUAGAAUUUCUUGAUAUCAUUAUCAUCUUUGUCGUAGUCCCAUC [yh5] | selected | 
GUAGUAAUCGUCUUCAUUCUCAUGGUGUUCAUCGUUCUCUAUGCC [yh42] | selected | 
GUCACAAUCAUCCCUAAUAAUGUUCCUCCGCAUCGUCCC [RAP #15] |  | functional effect of the aptamer ([1]; in vitro transcription: RNAP pausing, Rho-dependent termination enhanced by NusG): active; functional effect of the aptamer ([2]; inhibiting, Rho-dependent, abolished by bicyclomycin): active
UACCGUGACGUGCCAUCCAGUCCAUUUCGCCGUGGUAUUGU [RAP #14908] |  | functional effect of the aptamer ([2]; GFP transcript vs no RAP): > 1.5 fold; functional effect of the aptamer [4]: not active
UCACAUAACAUUCACACAUGCACACAUGUACCACAGCCAUGCCCACAUACCACAGCCACGCAUCAUCC [yh41] | selected | 
UUCCCAACGUGUUAGAAUUAUAGGCAUGACCCACUGUGCC [yh4] | selected | 

— US20180073026
